Laboratory results published in the supplement of paper PMC10735217.
Structures can show the parent of a compound that is named as a salt. Some of the results follow. This data set is noisy: repeats of one test often differ as much as different tests do.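 Human kidney-derived cells stably carry a construct in which eight TEAD-binding elements drive luciferase, measured by luminescence in a drug-repurposing library screen. A hit is any compound whose signal exceeds the plate mean by more than five robust Z scores.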

Test system: HEK293A TEAD-LUC reporter
Experiment: TEAD-luciferase reporter activity (YAP activation), robust Z score vs plate; higher = stronger YAP/TEAD activation
Details: 24 h

SMILES | TEAD-luciferase reporter activity (compound concentration: 200 nM) | TEAD-luciferase reporter activity (compound concentration: 2 uM) | TEAD-luciferase reporter activity (compound concentration: 10 uM)
N#Cc1ccccc1-c1cc(-c2ccccn2)cn(-c2ccccc2)c1=O [perampanel] | inactive: -0.477 | inactive: -0.91 | active: 8.08
CCOC(=O)CC(SP(=S)(OC)OC)C(=O)OCC (stereo not given) [Malathion] | inactive: -0.446 | inactive: -0.674 | inactive: 1.65
Cn1c(/C=C/CO)c(CO)c2c1C(=O)C=C(N1CC1)C2=O | inactive: 0.803 | inactive: -0.907 | inactive: 0.596
OC(COC1CN2CCC1CC2)(c1ccccc1)C1CCCC1 (stereo not given) [Penethequinine] | inactive: -1.11 | inactive: -0.29 | inactive: -1.23
CC1(C)CCC(C)(C)c2cc(C(=O)Nc3cc(F)c(C(=O)O)c(F)c3)c(O)cc21 | inactive: -0.839 | – | inactive: 1.47
COc1ccc(C[C@H]2c3cc(OC)c(OC)cc3CC[N@+]2(C)CCCOC(=O)/C=C\C(=O)OCCC[N@@+]2(C)CCc3cc(OC)c(OC)cc3[C@@H]2Cc2ccc(OC)c(OC)c2)cc1OC | inactive: 0.846 | inactive: 0.241 | inactive: 1.4
COc1cccc(C2(O)CCCC[C@@H]2C[N+](C)(C)[O-])c1 (stereo not given in full) [Tramadol N-oxide] | inactive: -0.939 | inactive: 0.637 | inactive: -0.648
CC1(C)S[C@@H]2[C@H](NC(=O)CCC[C@@H](N)C(=O)O)C(=O)N2[C@H]1C(=O)O | inactive: -2.08 | inactive: -0.762 | inactive: 0.604
CN(C)S(=O)(=O)c1ccc2c(c1)N(C1CN3CCC1CC3)c1ccccc1S2 (stereo not given) [quisultazine] | inactive: 2.89 | inactive: -0.84 | inactive: -0.92
O=C(C[N+]12CCC(CC1)C(OC(=O)C1(c3ccccc3)CCCCCC1)C2)Nc1ccccn1 (stereo not given) | inactive: 2.96 | inactive: -0.302 | inactive: -0.862
C1CCc2nnnn2CC1 | inactive: -0.857 | – | inactive: 4.14
C1CCc2nnnn2CC1 [pentylenetetrazole] | – | inactive: 0.776 | –
NCCc1cn(S(=O)(=O)c2c(Cl)nc3sccn23)c2ccccc12 | inactive: -1.19 | inactive: -0.224 | inactive: -0.336
C[C@]12CCC(NOCCN)=C[C@@H]1C(=O)C[C@@H]1[C@@H]2CC[C@]2(C)C(=O)CC[C@@H]12 [istaroxime] | inactive: -1.41 | inactive: 2.5 | –
C[C@H](N)[C@@H](O)c1ccccc1 [Cathine hydrochloride] | inactive: 1.28 | – | inactive: -0.708
COc1cc(N(C)C(=O)C(=O)c2c(C)n(Cc3ccc(Cl)cc3)c3ccc(Cl)cc23)ccn1 | inactive: -2.61 | inactive: -0.915 | inactive: 0.252
CC(C)N[C@H]1CCn2c(O)nc3cccc(c32)[C@@H]1O | inactive: 0.352 | inactive: 0.778 | inactive: 0.777
CCCCC/C=C\C/C=C\C/C=C\C/C=C\CCCC(=O)NCCCC(=O)O | – | inactive: -1.16 | inactive: -1.87
COCC1CN=C(c2ccccc2Cl)c2cc(Br)ccc2N1C (stereo not given) | inactive: 0.264 | inactive: 0.186 | inactive: 0.616
Cc1cn([C@H]2C[C@H](N=[N+]=[N-])[C@@H](COP(=O)([O-])O)O2)c(=O)[nH]c1=O [Phosphonovir] | inactive: 0.501 | inactive: 0.815 | inactive: 4.71
O=C(c1cn(Cc2ccccc2)c2ccccc12)N1CCC(O)(c2ccc(Cl)cc2)CC1 | inactive: -0.239 | inactive: 0.339 | inactive: 0.846
[O]=[Hg] [Mercuric Oxide] | inactive: 1.98 | inactive: -0.0662 | inactive: -0.0909
NC(=O)CS(=O)C(c1ccccc1)c1ccccc1 (stereo not drawn) [modafinil d-isomer, short-acting] | – | inactive: 1.33 | –
NC(=O)CS(=O)C(c1ccccc1)c1ccccc1 (stereo not given) | inactive: 1.28 | – | inactive: -0.312
O=C1CN=C(c2ccccn2)c2cc(Br)ccc2N1 [Bromazepam] | active: 6.42 | – | inactive: -0.317
CC(C)(O)c1cnn2c(-c3ccc(F)c(-c4c(F)cccc4C#N)c3)cnc2n1 | inactive: -1.41 | inactive: -0.984 | inactive: -0.8
CC[N+](C)(C)CCC(C(N)=O)(c1ccccc1)c1ccccc1 | inactive: 1.23 | inactive: -0.186 | inactive: -0.29

Shown as labelled records: entries from further up.
NC(=O)CS(=O)C(c1ccccc1)c1ccccc1 (stereo not drawn) [modafinil d-isomer, short-acting]
  TEAD-luciferase reporter activity (compound concentration: 2 uM): inactive: 1.33
CC(C)(O)c1cnn2c(-c3ccc(F)c(-c4c(F)cccc4C#N)c3)cnc2n1
  TEAD-luciferase reporter activity (compound concentration: 200 nM): inactive: -1.41; TEAD-luciferase reporter activity (compound concentration: 2 uM): inactive: -0.984; TEAD-luciferase reporter activity (compound concentration: 10 uM): inactive: -0.8
